{
  "source": "PubChem BioAssay AID624297",
  "about": "(National Center for Advancing Translational Sciences (NCATS), 2012)",
  "note": "In all, about 340,000 compounds went through this assay and about 6,200 (1.8%) were called active. This list was built around the results that the source calls inconclusive (neither active nor inactive); the mix of calls is not that of the screen. Calls follow the shape of the dose curve; as a rule, active = well fitted activation curve with a large enough effect; inconclusive = small, poorly fitted or top-dose-only effect; inactive = no such curve, though single readings can be large or run the other way. Potencies beside an inconclusive call are fits to weak or partial responses and may not hold up. Potency is read from the fitted curve at half-maximal effect.",
  "data": [
    {"assay": "A quantitative high throughput screen for small molecules that induce DNA re-replication in SW480 colon adenocarcinoma cells; also: nearly all actives have a fitted effect of over 55% in size; as to re-replication activation: % of control where 0% means no effect.", "conditions": "Hoechst DNA content imaging, 48 h; re-replication activation: at 46.1 µM (top of the series) unless noted", "in_short": "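Hoechst fluorescence of nuclei (405 nm excitation, 500-530 nm emission) measured by plate-scanning imager after 48 hr compound exposure at 37 C; re-replication scored as increased number of nuclei with elevated intensity.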", "values": [
      {"compound": "COc1ccccc1NC(=O)Cn1cnc2sc(C(=O)Nc3ccc(OC)c(OC)c3)c(C)c2c1=O", "Potency": "inconclusive: 29.1 µM [activator, single point]"},
      {"compound": "Cc1nn2c(=O)cc(COC(=O)c3ccc(NC(=O)C(C)(C)C)cc3)nc2s1", "Potency": "inconclusive: 29.1 µM [activator, single point]"},
      {"compound": "O=C(COc1ccc([N+](=O)[O-])cc1)Nc1ccc2c(c1)nc1n2CCOC1", "Potency": "inconclusive: 23.1 µM [activator, single point]"},
      {"compound": "O=C(Cn1c(=O)n(CC(=O)NCc2ccccc2)c2ccccc21)NCc1ccccc1", "Potency": "inconclusive: 5.8 µM [activator, full curve]"},
      {"compound": "Cc1ccc(C(=O)NCc2cccnc2)o1", "Potency": "inconclusive: 29.1 µM [activator, single point]"},
      {"compound": "COCc1nc(-c2ccc(-c3ccc(C)cc3)nc2OC)no1", "Potency": "inconclusive: 29.1 µM [activator, single point]"},
      {"compound": "CN(CCc1ccccn1)C(=S)Nc1cccc(S(=O)(=O)N(C)C)c1", "Potency": "inconclusive: 20.6 µM [activator, single point]"},
      {"compound": "CC1CCCCN1C(=O)COC(=O)/C=C/c1ccc2ccccc2n1", "note": "(centres undefined)", "Potency": "inconclusive: 18.4 µM [activator, single point]"},
      {"compound": "O=C(Nc1cscc1S(=O)(=O)c1ccc(Cl)cc1)c1ccccc1Cl", "Potency": "inconclusive: 0.58 µM [activator, full curve]"},
      {"compound": "CCOC(=O)c1cn(CC(=O)Nc2ccc(CC)cc2)nn1", "Potency": "inactive"},
      {"compound": "NS(=O)(=O)c1ccc(CCN2C(=O)/C(=C\\c3ccc(Cl)cc3)SC2=S)cc1", "Potency": "inconclusive: 29.1 µM [activator, single point]"},
      {"compound": "CCN1CCN(C(=S)c2ccc(SC)cc2)CC1", "Potency": "inconclusive: 20.6 µM [activator, partial curve, poor fit]"},
      {"compound": "Cc1cc(C)n(CC(O)COc2ccc3ccccc3c2)n1", "note": "(centres undefined)", "Potency": "inactive"},
      {"compound": "Cc1nn2c(-c3ccccn3)ccnc2c1Cl", "Potency": "inconclusive: 0.116 µM [activator, full curve, poor fit]"},
      {"compound": "CCOc1ccc(Br)cc1S(=O)(=O)Nc1ncn[nH]1", "Potency": "inactive"},
      {"compound": "O=C(Nc1ccccc1C(F)(F)F)c1cc(-c2ccc(O)cc2)on1", "Potency": "inconclusive: 16.4 µM [activator, single point]"},
      {"compound": "CCOCCCNCC(O)c1ccccc1", "note": "(centres undefined)", "Potency": "inconclusive: 5.17 µM [activator, full curve, poor fit]"},
      {"compound": "N#Cc1c(-c2ccccc2)nc(-c2cccnc2)[nH]c1=O", "re-replication activation": "inconclusive: 66.6% [activator]"},
      {"compound": "O=C(CSc1nnc(CNC(=O)c2ccccc2)o1)c1ccccc1", "Potency": "inconclusive: 7.31 µM [activator, partial curve, poor fit]"}
    ]}
  ]
}
